Measured values reported in the M2OR odorant receptor database.
The list shows a part of the results, in another mix than the full data. The calls were merged from several studies; some rest on single wells. The list shows a part of the results. Some of the results follow.

Assays:
Conditions in all cases: stereoisomer not certain
OR5AN1 (Homo sapiens) = target: T1, OR5AN1 (Homo sapiens) (UniProt Q8NGI8)
T1 sequence (whole entry): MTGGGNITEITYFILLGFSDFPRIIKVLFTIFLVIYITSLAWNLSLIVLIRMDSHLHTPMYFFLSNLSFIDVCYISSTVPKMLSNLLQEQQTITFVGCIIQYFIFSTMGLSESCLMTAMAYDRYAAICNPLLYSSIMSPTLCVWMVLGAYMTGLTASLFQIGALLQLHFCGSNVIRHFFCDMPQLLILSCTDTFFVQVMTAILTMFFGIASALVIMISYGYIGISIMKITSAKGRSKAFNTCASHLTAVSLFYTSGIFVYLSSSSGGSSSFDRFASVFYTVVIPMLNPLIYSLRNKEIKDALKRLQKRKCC
Method in brief: (§1)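 Values were gathered from published papers (main text and supplementary material), with extra details requested from the original authors when needed, and checked for typos and inconsistencies. Each receptor–molecule pair is called responsive (active) if the original authors judged the measured signal statistically different from baseline, and non-responsive (inactive) otherwise. Assay methods varied by source, often transient mammalian cell-line luciferase assays. Recorded details include cell line, G-protein, co-transfected protein and tags.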

OR5AR1 (Homo sapiens) = target: T2, OR5AR1 (Homo sapiens) (UniProt Q8NGP9)
T2 sequence (whole entry): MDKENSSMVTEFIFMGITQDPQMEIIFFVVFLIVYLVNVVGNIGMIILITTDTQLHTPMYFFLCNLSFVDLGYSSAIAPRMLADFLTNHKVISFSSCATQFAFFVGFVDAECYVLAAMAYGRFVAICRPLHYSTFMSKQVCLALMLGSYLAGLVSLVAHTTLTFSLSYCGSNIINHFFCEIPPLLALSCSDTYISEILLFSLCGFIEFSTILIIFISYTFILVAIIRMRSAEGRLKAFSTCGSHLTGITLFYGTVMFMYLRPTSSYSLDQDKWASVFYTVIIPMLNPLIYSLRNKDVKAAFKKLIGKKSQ
Method in brief: as §1

OR5AS1 (Homo sapiens) = target: T3, OR5AS1 (Homo sapiens) (UniProt Q8N127)
T3 sequence (whole entry): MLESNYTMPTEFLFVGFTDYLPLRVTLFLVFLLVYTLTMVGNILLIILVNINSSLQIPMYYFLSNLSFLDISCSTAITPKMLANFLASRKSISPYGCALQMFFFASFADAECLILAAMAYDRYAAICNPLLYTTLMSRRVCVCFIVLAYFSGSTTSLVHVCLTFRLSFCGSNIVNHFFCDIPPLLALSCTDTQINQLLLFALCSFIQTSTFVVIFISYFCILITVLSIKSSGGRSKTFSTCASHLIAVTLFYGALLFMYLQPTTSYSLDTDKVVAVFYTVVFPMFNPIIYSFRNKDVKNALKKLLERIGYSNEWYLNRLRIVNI
Method in brief: as §1

OR5AU1 (Homo sapiens) = target: T4, OR5AU1 (Homo sapiens) (UniProt Q8NGC0)
T4 sequence (whole entry): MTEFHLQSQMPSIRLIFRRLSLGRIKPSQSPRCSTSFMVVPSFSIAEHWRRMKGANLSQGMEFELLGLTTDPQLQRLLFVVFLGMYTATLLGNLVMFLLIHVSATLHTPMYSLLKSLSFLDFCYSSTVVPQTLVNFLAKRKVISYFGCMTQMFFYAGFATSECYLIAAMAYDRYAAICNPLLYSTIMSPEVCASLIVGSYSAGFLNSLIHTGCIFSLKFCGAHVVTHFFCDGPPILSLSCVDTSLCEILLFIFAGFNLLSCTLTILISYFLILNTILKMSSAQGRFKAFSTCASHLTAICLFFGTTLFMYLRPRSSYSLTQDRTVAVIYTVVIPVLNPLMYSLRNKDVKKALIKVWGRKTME
Method in brief: as §1

OR5B17 (Homo sapiens) = target: T5, OR5B17 (Homo sapiens) (UniProt Q8NGF7)
T5 sequence (whole entry): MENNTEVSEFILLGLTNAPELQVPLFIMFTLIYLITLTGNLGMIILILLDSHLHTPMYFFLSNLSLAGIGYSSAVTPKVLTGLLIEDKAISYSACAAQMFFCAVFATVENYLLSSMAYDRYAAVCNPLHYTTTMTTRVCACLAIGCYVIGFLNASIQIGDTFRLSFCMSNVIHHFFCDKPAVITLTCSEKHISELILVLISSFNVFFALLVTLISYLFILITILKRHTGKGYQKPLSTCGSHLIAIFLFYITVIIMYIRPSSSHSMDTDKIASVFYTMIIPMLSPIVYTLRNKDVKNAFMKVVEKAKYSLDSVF
Method in brief: as §1

OR5B2 = tested on: T6, OR5B2
T6 sequence (whole entry): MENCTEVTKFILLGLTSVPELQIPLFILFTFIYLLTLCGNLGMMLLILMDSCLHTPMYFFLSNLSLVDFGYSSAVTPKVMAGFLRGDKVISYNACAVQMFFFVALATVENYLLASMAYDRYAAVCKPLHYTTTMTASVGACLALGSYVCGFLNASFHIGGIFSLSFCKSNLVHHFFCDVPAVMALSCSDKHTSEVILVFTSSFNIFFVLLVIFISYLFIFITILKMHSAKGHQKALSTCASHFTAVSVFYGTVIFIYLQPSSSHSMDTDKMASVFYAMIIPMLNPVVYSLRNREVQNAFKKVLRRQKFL
Method in brief: as §1

OR5B3 (Homo sapiens) = target: T7, OR5B3 (Homo sapiens) (UniProt Q8NH48)
T7 sequence (whole entry): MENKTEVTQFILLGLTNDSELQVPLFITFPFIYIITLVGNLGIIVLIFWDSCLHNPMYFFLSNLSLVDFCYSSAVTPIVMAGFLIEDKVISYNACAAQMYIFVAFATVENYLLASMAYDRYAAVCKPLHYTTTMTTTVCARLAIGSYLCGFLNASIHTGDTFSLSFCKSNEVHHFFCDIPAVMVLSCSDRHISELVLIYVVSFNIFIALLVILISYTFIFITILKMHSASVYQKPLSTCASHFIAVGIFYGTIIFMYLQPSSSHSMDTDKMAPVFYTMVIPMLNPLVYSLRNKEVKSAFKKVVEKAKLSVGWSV
Method in brief: as §1

OR5BC = tested on: T8, OR5BC
T8 sequence (whole entry): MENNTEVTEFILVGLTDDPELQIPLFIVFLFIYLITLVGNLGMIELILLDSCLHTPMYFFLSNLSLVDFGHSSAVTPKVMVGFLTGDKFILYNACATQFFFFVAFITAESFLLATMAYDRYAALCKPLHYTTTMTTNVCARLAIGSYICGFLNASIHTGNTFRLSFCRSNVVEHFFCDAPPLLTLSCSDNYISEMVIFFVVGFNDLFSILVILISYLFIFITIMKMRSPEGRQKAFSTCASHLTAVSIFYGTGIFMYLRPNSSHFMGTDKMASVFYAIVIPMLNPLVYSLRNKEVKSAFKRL
Method in brief: as §1

OR5BL = tested on: T9, OR5BL
T9 sequence (whole entry): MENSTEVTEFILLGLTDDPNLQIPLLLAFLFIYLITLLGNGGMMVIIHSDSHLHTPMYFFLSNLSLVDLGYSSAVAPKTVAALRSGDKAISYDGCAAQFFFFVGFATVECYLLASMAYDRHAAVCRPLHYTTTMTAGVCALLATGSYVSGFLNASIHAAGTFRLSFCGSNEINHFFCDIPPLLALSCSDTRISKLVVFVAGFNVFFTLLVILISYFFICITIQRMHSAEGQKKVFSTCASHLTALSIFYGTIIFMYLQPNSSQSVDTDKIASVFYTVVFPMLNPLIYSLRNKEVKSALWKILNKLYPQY
Method in brief: as §1

OR5C1 (Homo sapiens) = target: T10, OR5C1 (Homo sapiens) (UniProt Q8NGR4)
T10 sequence (whole entry): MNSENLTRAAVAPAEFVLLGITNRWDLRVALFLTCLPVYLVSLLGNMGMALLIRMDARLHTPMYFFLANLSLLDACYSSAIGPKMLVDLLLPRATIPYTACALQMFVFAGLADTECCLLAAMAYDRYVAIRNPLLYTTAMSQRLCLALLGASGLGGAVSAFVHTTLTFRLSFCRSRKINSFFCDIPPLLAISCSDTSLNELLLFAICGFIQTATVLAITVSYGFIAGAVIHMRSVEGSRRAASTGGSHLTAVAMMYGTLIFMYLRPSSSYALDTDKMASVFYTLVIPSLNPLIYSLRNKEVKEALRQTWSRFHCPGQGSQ
Method in brief: as §1

Measured: odorant receptor agonist call

CCC(C)=O
inactive: all assays above
